According to paper PMC11074300:
Positions count from the first letter of the chain named. These are yes or no findings as the source states them, for the method shown. For some assays here: In cells and extracts the contact can be indirect. Some entries that bind do so weakly or less than the wild type. For some assays here: Where a sequence is shown, tags or fusion partners need not be part of it.

Sequences of proteins named here, by UniProt entry; tags and fusion partners are left off.
UniProt Q92973: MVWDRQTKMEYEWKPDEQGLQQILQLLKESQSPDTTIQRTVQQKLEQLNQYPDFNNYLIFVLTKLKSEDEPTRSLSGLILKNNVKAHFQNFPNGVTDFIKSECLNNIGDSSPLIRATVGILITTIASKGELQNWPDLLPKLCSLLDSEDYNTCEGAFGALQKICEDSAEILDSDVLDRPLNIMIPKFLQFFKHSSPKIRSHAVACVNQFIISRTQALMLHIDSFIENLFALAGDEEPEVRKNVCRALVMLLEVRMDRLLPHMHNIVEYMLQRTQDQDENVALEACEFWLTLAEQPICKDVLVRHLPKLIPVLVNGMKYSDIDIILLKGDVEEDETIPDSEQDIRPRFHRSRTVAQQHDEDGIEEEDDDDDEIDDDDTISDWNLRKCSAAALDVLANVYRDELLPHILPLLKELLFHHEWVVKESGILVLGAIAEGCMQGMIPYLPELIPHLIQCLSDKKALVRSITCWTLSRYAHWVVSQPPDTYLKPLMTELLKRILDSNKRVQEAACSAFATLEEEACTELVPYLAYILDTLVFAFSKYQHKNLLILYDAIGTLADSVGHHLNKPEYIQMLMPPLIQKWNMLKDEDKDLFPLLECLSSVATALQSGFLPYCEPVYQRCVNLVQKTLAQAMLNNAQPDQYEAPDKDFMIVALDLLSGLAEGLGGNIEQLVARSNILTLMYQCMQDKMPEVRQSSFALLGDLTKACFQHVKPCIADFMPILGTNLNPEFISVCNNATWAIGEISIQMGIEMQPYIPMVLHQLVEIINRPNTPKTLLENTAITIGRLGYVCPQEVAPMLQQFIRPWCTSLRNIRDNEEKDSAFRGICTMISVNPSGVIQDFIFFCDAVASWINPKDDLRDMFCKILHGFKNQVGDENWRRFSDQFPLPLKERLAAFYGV
UniProt P29590: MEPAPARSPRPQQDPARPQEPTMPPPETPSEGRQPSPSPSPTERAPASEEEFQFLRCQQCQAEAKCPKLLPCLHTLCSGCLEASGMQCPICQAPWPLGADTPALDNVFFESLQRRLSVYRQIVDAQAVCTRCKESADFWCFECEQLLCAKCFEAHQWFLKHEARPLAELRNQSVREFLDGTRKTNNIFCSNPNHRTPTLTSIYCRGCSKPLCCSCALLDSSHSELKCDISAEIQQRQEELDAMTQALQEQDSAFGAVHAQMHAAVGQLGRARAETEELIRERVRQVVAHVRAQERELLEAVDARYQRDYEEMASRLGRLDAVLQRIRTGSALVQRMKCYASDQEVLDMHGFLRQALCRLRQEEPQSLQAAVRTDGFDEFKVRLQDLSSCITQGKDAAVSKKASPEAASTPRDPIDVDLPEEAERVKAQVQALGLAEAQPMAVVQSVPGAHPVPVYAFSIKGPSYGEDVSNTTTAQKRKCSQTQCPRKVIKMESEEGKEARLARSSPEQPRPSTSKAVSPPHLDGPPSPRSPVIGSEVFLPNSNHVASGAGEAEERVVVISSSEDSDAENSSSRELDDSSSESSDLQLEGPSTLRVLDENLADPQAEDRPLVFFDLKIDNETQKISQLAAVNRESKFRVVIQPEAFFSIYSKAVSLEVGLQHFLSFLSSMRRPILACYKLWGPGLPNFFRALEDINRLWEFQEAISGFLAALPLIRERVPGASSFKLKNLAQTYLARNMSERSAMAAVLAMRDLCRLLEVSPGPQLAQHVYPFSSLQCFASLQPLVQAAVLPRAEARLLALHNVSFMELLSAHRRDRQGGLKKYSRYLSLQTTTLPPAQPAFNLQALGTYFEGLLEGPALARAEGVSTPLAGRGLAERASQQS
UniProt O95271: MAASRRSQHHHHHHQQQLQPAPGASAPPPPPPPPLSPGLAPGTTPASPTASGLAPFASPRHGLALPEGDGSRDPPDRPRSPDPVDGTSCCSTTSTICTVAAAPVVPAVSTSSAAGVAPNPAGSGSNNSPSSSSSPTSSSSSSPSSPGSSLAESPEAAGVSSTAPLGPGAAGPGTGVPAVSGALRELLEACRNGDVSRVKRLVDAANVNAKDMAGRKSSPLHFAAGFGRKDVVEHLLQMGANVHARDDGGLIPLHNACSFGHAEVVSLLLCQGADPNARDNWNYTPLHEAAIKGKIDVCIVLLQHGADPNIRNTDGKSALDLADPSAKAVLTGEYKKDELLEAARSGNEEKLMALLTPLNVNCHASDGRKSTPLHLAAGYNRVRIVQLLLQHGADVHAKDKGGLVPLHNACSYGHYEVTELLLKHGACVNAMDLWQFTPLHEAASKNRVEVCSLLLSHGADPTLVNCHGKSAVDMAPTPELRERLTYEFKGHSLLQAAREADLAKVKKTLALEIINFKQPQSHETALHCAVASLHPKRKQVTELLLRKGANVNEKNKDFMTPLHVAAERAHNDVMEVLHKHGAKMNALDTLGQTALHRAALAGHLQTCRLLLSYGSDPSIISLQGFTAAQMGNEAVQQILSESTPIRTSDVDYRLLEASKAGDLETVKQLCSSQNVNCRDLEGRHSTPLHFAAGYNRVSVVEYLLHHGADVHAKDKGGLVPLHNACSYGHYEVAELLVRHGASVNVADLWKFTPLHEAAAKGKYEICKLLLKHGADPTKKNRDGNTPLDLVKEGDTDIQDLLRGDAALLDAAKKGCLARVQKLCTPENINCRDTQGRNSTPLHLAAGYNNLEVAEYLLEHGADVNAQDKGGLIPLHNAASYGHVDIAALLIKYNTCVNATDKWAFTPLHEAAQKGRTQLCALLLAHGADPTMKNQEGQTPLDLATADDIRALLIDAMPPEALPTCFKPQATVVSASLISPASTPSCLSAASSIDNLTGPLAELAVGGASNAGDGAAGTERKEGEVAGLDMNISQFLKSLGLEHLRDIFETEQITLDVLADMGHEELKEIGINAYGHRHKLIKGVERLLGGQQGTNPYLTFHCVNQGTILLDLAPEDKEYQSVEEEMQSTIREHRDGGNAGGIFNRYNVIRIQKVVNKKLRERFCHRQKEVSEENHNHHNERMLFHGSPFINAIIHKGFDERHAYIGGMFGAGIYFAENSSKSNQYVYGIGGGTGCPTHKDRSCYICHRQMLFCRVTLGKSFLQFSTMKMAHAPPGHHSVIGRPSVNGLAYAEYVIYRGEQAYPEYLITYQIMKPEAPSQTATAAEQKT

Experiments:
GST-Golgin45 (336–385) = molecular target: T1, GST-Golgin45 (336–385) (UniProt Q9H2G9); assay: pull-down; 200 µg GST-fusion proteins immobilized on glutathione Sepharose 4B; 0.1 μM Importin β2 in 25 mM Hepes pH 7.37, 300 mM NaOAc, 25 mM Mg(OAc)2, 0.5% Triton X-100, 1 mM DTT; 4 °C, 2 h; bound fractions blotted with anti-importin β2; both purified
T1 sequence: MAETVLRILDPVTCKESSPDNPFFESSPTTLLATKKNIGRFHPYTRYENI

mCherry-Golgin45 = molecular target: T2, mCherry-Golgin45 (UniProt Q9H2G9); assay: co-IP; HeLa cells transfected with mCherry-Golgin45 constructs (in some panels with myc-SUMO1 and HA-UBC9 WT or DN; in one panel with or without heat shock), lysed, anti-RFP beads, blots for endogenous proteins
T2 sequence: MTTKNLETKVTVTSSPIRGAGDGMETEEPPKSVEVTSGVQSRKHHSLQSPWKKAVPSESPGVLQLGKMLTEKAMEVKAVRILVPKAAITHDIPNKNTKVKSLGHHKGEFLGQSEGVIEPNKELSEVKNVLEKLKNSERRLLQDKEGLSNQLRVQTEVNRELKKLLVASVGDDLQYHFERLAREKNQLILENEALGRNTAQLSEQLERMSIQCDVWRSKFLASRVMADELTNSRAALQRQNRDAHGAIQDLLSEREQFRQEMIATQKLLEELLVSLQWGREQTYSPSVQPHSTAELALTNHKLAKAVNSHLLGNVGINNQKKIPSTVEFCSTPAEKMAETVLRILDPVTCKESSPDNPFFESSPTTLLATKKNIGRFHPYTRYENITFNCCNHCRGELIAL

mCherry-Golgin45 8-KR = molecular target: T3, mCherry-Golgin45 8-KR (UniProt Q9H2G9); assay: as above
T3 sequence: T2 sequence with K4R, K9R, K67R, K72R, K77R, K100R, K106R, K127R

binding (GST-Golgin45 (336–385)) | binding (mCherry-Golgin45) | binding (mCherry-Golgin45 8-KR) | Substance
binds |  |  | His-tagged importin β2 (from UniProt Q92973 1-898)
 | binds |  | Importin β2 (endogenous) (from UniProt Q92973 1-898)
 | binds |  | PML (endogenous) (from UniProt P29590 1-882)
 | binds | binds | Tankyrase-1 (endogenous) (from UniProt O95271 1-1327)
